According to paper PMC4299599, “Quantification of cytosolic interactions identifies Ede1 oligomers as key organizers of endocytosis” (Molecular Systems Biology, 2014):
These are yes or no findings as the source states them, for the method shown. Some results given as binding are weak or reduced against the parent protein; the word gives no strength. For part of these data: Where a sequence is shown, tags or fusion partners need not be part of it.

T1: Yap1802 (S. cerevisiae) (UniProt P53309)
T1 sequence: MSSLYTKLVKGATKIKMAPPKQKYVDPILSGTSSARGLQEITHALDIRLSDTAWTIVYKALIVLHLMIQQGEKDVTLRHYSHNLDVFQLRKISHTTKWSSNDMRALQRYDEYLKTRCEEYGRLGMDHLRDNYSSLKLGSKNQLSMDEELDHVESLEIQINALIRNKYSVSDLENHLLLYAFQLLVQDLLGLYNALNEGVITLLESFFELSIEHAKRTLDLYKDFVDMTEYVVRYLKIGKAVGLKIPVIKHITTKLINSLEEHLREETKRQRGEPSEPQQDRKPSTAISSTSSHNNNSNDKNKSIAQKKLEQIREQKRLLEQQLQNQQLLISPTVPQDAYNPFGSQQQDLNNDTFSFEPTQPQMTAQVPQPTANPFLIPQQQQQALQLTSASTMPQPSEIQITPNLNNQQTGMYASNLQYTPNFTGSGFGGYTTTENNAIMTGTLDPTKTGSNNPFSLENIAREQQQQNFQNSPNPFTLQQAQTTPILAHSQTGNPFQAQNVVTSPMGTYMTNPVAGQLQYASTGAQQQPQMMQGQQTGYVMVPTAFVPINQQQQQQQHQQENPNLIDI

T2: Ent1 (S. cerevisiae) (UniProt Q12518)
T2 sequence: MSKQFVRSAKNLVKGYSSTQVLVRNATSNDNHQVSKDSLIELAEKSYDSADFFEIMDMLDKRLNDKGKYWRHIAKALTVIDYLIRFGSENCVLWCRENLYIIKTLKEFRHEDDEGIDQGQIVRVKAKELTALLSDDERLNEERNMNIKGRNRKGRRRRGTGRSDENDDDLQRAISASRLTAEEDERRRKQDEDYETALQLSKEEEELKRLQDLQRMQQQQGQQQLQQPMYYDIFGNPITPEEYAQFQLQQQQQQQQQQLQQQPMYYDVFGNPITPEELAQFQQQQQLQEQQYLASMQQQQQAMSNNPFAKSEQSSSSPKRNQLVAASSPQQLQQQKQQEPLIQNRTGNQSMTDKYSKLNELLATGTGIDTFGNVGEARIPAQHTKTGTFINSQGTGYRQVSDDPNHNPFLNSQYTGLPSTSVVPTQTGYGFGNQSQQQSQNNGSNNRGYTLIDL

T3: End3 (S. cerevisiae) (UniProt P39013)
T3 sequence: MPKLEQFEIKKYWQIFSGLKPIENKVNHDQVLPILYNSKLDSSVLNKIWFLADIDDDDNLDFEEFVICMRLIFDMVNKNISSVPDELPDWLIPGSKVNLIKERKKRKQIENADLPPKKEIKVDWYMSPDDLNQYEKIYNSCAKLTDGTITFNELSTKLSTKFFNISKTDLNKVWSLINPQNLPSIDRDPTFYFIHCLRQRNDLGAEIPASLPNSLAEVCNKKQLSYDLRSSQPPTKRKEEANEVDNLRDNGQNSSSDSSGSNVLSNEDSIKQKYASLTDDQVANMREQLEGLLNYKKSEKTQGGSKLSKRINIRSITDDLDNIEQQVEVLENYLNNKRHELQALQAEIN

T4: Rvs161 (S. cerevisiae) (UniProt P25343)
T4 sequence: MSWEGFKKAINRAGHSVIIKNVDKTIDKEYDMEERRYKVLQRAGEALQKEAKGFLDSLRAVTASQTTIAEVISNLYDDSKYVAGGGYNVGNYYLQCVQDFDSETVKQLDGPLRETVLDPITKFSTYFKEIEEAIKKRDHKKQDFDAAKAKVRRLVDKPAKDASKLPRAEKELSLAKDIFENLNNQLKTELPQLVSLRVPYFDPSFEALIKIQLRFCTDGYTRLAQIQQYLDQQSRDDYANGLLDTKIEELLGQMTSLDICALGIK


Experiments:
Yap1802 (S. cerevisiae) = target: T1, Yap1802 (S. cerevisiae); test: condition: detection range of FCCS: apparent KD up to ~1 μM; fluorescence cross-correlation spectroscopy (FCCS); living yeast cells, observation volume in the cytoplasm; one protein tagged with (3)myeGFP/eGFP and the other with 3mCherry in the same strain; apparent (effective) KD; interactions up to ~1 μM detectable
Ent1 (S. cerevisiae) = target: T2, Ent1 (S. cerevisiae); test: as above
End3 (S. cerevisiae) = target: T3, End3 (S. cerevisiae); test: as above
Rvs161 (S. cerevisiae) [1] = target: T4, Rvs161 (S. cerevisiae); test: condition: 1000 nM (only Kdeff-values < 1000 nM are shown); fluorescence cross-correlation spectroscopy (FCCS); in the cytoplasm of living yeast cells; first-named protein green (3myeGFP or 1myeGFP; eGFP for Don1), second red (3mCherry); self-interaction in diploid strains with one allele of each colour; apparent or effective KD (Kdeff) from single-cell measurements; only Kdeff values < 1000 nM are shown; values for self-interactions are upper limits
Rvs167 = target: T5, Rvs167 (S. cerevisiae, UniProt P39743 1-482); test: fluorescence cross-correlation spectroscopy (FCCS); living yeast cells, observation volume in the cytoplasm; one protein tagged with (3)myeGFP/eGFP and the other with 3mCherry in the same strain; apparent (effective) KD; interactions up to ~1 μM detectable
T5 construct: Rvs167, amphiphysin-like protein, S. cerevisiae; also called Rvs167-1myeGFP; source: chromosomally tagged at the endogenous locus, in the cytoplasm of living S. cerevisiae cells; not shown: 1myeGFP, C-terminal, kept

Rvs161 (S. cerevisiae) [2] = target: T4, Rvs161 (S. cerevisiae); test: condition: detection range of FCCS: apparent KD up to ~1 μM; fluorescence cross-correlation spectroscopy (FCCS); self-interaction: living diploid yeast cells with one allele fused to (3)myeGFP and one to (3)mCherry, cytoplasm; apparent (effective) KD, to be taken as the upper limit since complexes of one colour are not seen

binding (Yap1802 (S. cerevisiae))	binding (Ent1 (S. cerevisiae))	binding (End3 (S. cerevisiae))	binding (Rvs161 (S. cerevisiae) [1])	binding (Rvs167)	binding (Rvs161 (S. cerevisiae) [2])	Binder
no binding	no binding	no binding				Ede1 (Ede1-3myeGFP / Ede1-3mCherry) (natural protein, S. cerevisiae, UniProt P34216 1-1381, looked up, Ede1, S. cerevisiae, homolog of mammalian Eps15; expressed from its own locus; also called wild-type Ede1; full-length Ede1; source: S. cerevisiae, chromosomally tagged at the endogenous locus, in living cells; not shown: 3myeGFP, C-terminal, kept; 3mCherry, C-terminal, kept) MASITFRTPLSSQEQAFYNQKFHQLDTEDLGVVTGEAVRPLFASSGLPGQLLSQVWATVDIDNKGFLNLNEFSAALRMIAQLQNAPNQPISAALYESTPTQLASFSINQNPAPMQSGSATGNTNNTDIPALSSNDIAKFSQLFDRTAKGAQTVAGDKAKDIFLKARLPNQTLGEIWALCDRDASGVLDKSEFIMAMYLIQLCMSHHPSMNTPPAVLPTQLWDSIRLEPVVVNQPNRTTPLSANSTGVSSLTRHSTISRLSTGAFSNAASDWSLSFEKKQQFDAIFDSLDKQHAGSLSSAVLVPFFLSSRLNQETLATIWDLADIHNNAEFTKLEFAIAMFLIQKKNAGVELPDVIPNELLQSPALGLYPPNPLPQQQSAPQIAIPSRASKPSLQDMPHQVSAPAVNTQPTVPQVLPQNSNNGSLNDLLALNPSFSSPSPTKAQTVVQNNTNNSFSYDNNNGQATLQQQQPQQPPPLTHSSSGLKKFTPTSNFGQSIIKEEPEEQEQLRESSDTFSAQPPPVPKHASSPVKRTASTTLPQVPNFSVFSMPAGAATSAATGAAVGAAVGAAALGASAFSRSSNNAFKNQDLFADGEASAQLSNATTEMANLSNQVNSLSKQASITNDKKSRATQELKRVTEMKNSIQIKLNNLRSTHDQNVKQTEQLEAQVLQVNKENETLAQQLAVSEANYHAAESKLNELTTDLQESQTKNAELKEQITNLNSMTASLQSQLNEKQQQVKQERSMVDVNSKQLELNQVTVANLQKEIDGLGEKISVYLTKQKELNDYQKTVEEQHAQLQAKYQDLSNKDTDLTDREKQLEERNRQIEEQENLYHQHVSKLQEMFDDLSQRKASFEKADQELKERNIEYANNVRELSERQMNLAMGQLPEDAKDIIAKSASNTDTTTKEATSRGNVHEDTVSKFVETTVENSNLNVNRVKDDEEKTERTESDVFDRDVPTLGSQSDSENANTNNGTQSGNETANPNLTETLSDRFDGDLNEYGIPRSQSLTSSVANNAPQSVRDDVELPETLEERDTINNTANRDNTGNLSHIPGEWEATPATASTDVLSNETTEVIEDGSTTKRANSNEDGESVSSIQESPKISAQPKAKTINEEFPPIQELHIDESDSSSSDDDEFEDTREIPSATVKTLQTPYNAQPTSSLEIHTEQVIKYPAPGTSPSHNEGNSKKASTNSILPVKDEFDDEFAGLEQAAVEEDNGADSESEFENVANAGSMEQFETIDHKDLDDELQMNAFTGTLTSSSNPTIPKPQVQQQSTSDPAQVSNDEWDEIFAGFGNSKAEPTKVATPSIPQQPIPLKNDPIVDASLSKGPIVNRGVATTPKSLAVEELSGMGFTEEEAHNALEKCNWDLEAATNFLLDSA
			no binding	binds	no binding	Rvs161 (natural protein, S. cerevisiae, UniProt P25343 1-265, looked up, Rvs161, amphiphysin-like protein, S. cerevisiae; also called Rvs161-1myeGFP; Rvs161-3mCherry; source: chromosomally tagged at the endogenous locus, in the cytoplasm of living S. cerevisiae cells) MSWEGFKKAINRAGHSVIIKNVDKTIDKEYDMEERRYKVLQRAGEALQKEAKGFLDSLRAVTASQTTIAEVISNLYDDSKYVAGGGYNVGNYYLQCVQDFDSETVKQLDGPLRETVLDPITKFSTYFKEIEEAIKKRDHKKQDFDAAKAKVRRLVDKPAKDASKLPRAEKELSLAKDIFENLNNQLKTELPQLVSLRVPYFDPSFEALIKIQLRFCTDGYTRLAQIQQYLDQQSRDDYANGLLDTKIEELLGQMTSLDICALGIK
